The values that follow come from paper PMC13070491, “Single-nucleus transcriptomics, pharmacokinetics, and pharmacodynamics of CDK4/6 and mTOR inhibition in a Phase 0/1 trial of recurrent high-grade glioma” (Neuro-Oncology, 2025).

Values joined by “and” are separate entries in the source; they are usually repeats but may differ in a detail not shown here. Identical values can stand only once. The source gives many values for each of these; only a part stands here.

The data set in a line: CNS penetration: total and unbound drug concentrations in tumor regions, CSF and plasma (LC-MS/MS, equilibrium dialysis).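 Also: drug levels in patient tumor tissue from contrast-enhancing and non-enhancing regions sampled under MRI-guided neuronavigation, with plasma and CSF drawn during surgical resection.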 The conditions noted are these: Level 0: Ribociclib 400mg QD + Everolimus 2.5mg QD, per patient. In general terms: In equilibrium dialysis only unbound substance equilibrates across the membrane.

Take `CN(C)C(=O)c1cc2cnc(Nc3ccc(N4CCNCC4)cn3)nc2n1C1CCCC1` [Ribociclib, ribociclib]: for the setting “sampling 7-9 Hours”, the Ribociclib.CSF is 0.2038 and 0.0808; the Ribociclib.Non-enhancing.tumor is 2.43 and 1.3724; the Ribociclib.Plasma.conc was 0.475 and 0.3193; the Ribociclib.Unbound.CSF is 0.1800 and 0.0705. The Ribociclib.Unbound.enhancing (sampling 7-9 Hours) was 0.331 and 0.3214. In addition, under “sampling 23-25 Hours”, the Ribociclib.CSF is reported as 0.0361, the Ribociclib.Non-enhancing.tumor was 1.6628 and the Ribociclib.Unbound.CSF came out at 0.0295.
